Test results taken from US20110217715A1, “GENE EXPRESSION IN DUCHENNE MUSCULAR DYSTROPHY” (CHILDREN'S HOSPITAL MEDICAL CENTER, priority 2008, published 2011).
The source gives many values for each of these; only a part stands here.

System: mRNA expression in peripheral blood of individuals with DMD
Experiment: Whole-blood gene expression microarray: DMD administered deflazacort vs DMD administered prednisone
Assay type: in vivo, human
Method: Fifteen ml of blood was collected from each individual into 6 PAXgene® Vacutainer® tubes (PreAnalytiX, Germany) by antecubital fossa venipuncture. PAXgene® tubes contain a proprietary reagent that immediately stabilizes RNA, thus reducing RNA degradation and minimizing gene expression changes following phlebotomy. The tubes were then inverted 20 times, then remained undisturbed for 2 h at room temperature (about 19° C. to about 22° C.), and then stored at -70° C. until processed. Total RNA was isolated using the Paxgene® blood RNA kit (PreAnalytiX, Germany) according to the manufacturers instructions. The RNA isolated is from all cells in whole blood. Typical yields of total RNA isolated from about 7.5 ml of human whole blood were between 10 μg RNA and 40 μg RNA. RNA quality and purity was analyzed by spectrophotometry using the Nanodrop ND-1000, and RNA integrity was analyzed using the Agilent 2100 Bioanalyzer. […] Sample labeling, hybridization to chips, and image scanning were performed using standard Affymetrix protocols. For each whole blood sample from control individuals and individuals with DMD, total RNA was labeled using the One-Cycle Target Labeling protocol and hybridized to the arrays. […] Double-stranded cDNA synthesis, biotin-labeled cRNA synthesis, and cRNA fragmentation were performed according to the Affymetrix GeneChip Eukaryotic Expression Analysis protocol. The labeled, fragmented cRNA (15 μg) was hybridized at 45° C. overnight. After hybridization, the array was washed and stained. The arrays were scanned with an argon-ion laser at λ=570 nm, with a resolution of 3 μm/pixel (Affymetrix, Inc.). After scanning the array, the raw probe level values for each probe were saved in Affymetrix.cel files. […] Statistical analyses, including t-test analyses, unsupervised hierarchical clustering, and principal component analyses were conducted using Genespring 7.2 software ([…]® 7, Silicon Genetics, Redwood City Calif.). […] Corrections for multiple comparisons used a Benjamini-Hochberg False Discovery Rate (FDR) of 0.05, disclosed in Tang et al., J Cereb Blood Flow Metab 26 (2006) 1089, which is expressly incorporated by reference herein in its entirety. […] Sample processing and array hybridization, probe-level data analysis, and statistical analysis were identical to Example 1.

CC(=O)OCC(=O)[C@@]12N=C(C)O[C@@H]1C[C@H]1[C@@H]3CCC4=CC(=O)C=C[C@]4(C)[C@H]3[C@@H](O)C[C@@]12C [deflazacort]
p-value (gene HBLD2, Genbank NM_030940, Nucleic Acid No. 2314): 0.0311 | p-value (gene KLF9, Genbank NM_001206, Nucleic Acid No. 2315): 0.0319 | p-value (gene LOC51326, Genbank AF119889, Nucleic Acid No. 2316): 0.0429 | p-value (gene MLC1SA, Genbank NM_002475, Nucleic Acid No. 2317): 0.0202 | p-value (gene MTP18, Genbank AF060924, Nucleic Acid No. 2318): 0.0129 | p-value (gene NUDT4, NUDT4P1, Genbank AF191653, Nucleic Acid No. 1738): 0.0352 | p-value (gene OSBP2, Genbank BE501253, Nucleic Acid No. 2319): 0.0334 | p-value (gene RAB2B, Genbank AA531016, Nucleic Acid No. 2320): 0.0428 | p-value (gene RARA, Genbank U41742, Nucleic Acid No. 2321): 0.0198 | p-value (gene SIGLEC7, Genbank NM_016543, Nucleic Acid No. 2210): 0.0193 | p-value (gene SIGLEC9, Genbank AF247180, Nucleic Acid No. 2211): 0.0364 | p-value (gene SIRPB1, Genbank NM_006065, Nucleic Acid No. 2212): 0.0432 | p-value (gene SLC7A7, Genbank NM_003982, Nucleic Acid No. 2214): 0.0242 | p-value (gene SLC25A36, Genbank AL136803, Nucleic Acid No. 56): 0.0384 | p-value (gene SLC33A1, Genbank BC029450, Nucleic Acid No. 2213): 0.0407 | p-value (gene SLIC1, Genbank AI081246, Nucleic Acid No. 2215): 0.0159 | p-value (gene SMARCA4, Genbank D26156, Nucleic Acid No. 2216): 0.0291 | p-value (gene SMC5L1, Genbank BC035661, Nucleic Acid No. 2217): 0.0179 | p-value (gene SND1, Genbank AI374686, Nucleic Acid No. 2218): 0.0162 | p-value (gene SNX1, Genbank AK098001, Nucleic Acid No. 2219): 0.0426 | p-value (gene SOD2, Genbank W46388, Nucleic Acid No. 2220): 0.0239 | p-value (gene SP2, Genbank D28588, Nucleic Acid No. 2222): 0.0386 | p-value (gene SP3, Genbank N23846, Nucleic Acid No. 2223): 0.0499 | p-value (gene SP110, Genbank AF280094, Nucleic Acid No. 2221): 0.0401 | p-value (gene SPAG9, Genbank BC007524, Nucleic Acid No. 2224): 0.0493 | p-value (gene ST8SIA4, Genbank AA352113, Nucleic Acid No. 1171): 0.0441 | p-value (gene STAT3, Genbank AA634272, Nucleic Acid No. 2226): 0.0328 | p-value (gene STAT3, Genbank AI139252, Nucleic Acid No. 2227): 0.0405 | p-value (gene STAT3, Genbank BC000627, Nucleic Acid No. 2225): 0.025 | p-value (gene STEAP4, Genbank AA650281, Nucleic Acid No. 2228): 0.0195 | p-value (gene SULT1A1, Genbank NM_001055, Nucleic Acid No. 2229): 0.0233 | p-value (gene SULT1A3, SULT1A4, Genbank U08032, Nucleic Acid No. 2230): 0.0234 | p-value (gene SVIL, Genbank BC022883, Nucleic Acid No. 2231): 0.0273 | p-value (gene SYK, Genbank AW467357, Nucleic Acid No. 2232): 0.0336 | p-value (gene TAL1, Genbank AW300901, Nucleic Acid No. 2322): 0.0248 | p-value (gene TAX1BP3, Genbank AF234997, Nucleic Acid No. 2233): 0.027 | p-value (gene TBC1D22A, Genbank AI597838, Nucleic Acid No. 2234): 0.0353 | p-value (gene TGFB1, Genbank BC000125, Nucleic Acid No. 2235): 0.0114 | p-value (gene TGFBR3, Genbank NM_003243, Nucleic Acid No. 2236): 0.0469 | p-value (gene TGOLN2, Genbank NM_006464, Nucleic Acid No. 1425): 0.00127 | p-value (gene THRAP2, Genbank AK025348, Nucleic Acid No. 2237): 0.04 | p-value (gene TIAF1, MYO18A, Genbank NM_004740, Nucleic Acid No. 2238): 0.0229 | p-value (gene TJP2, Genbank NM_004817, Nucleic Acid No. 675): 0.0455 | p-value (gene TLE3, Genbank AI567426, Nucleic Acid No. 2239): 0.0127 | p-value (gene TLE3, Genbank NM_005078, Nucleic Acid No. 2240): 0.0216 | p-value (gene TLR1, Genbank AL050262, Nucleic Acid No. 2241): 0.0328 | p-value (gene TMCC1, Genbank AB018322, Nucleic Acid No. 1003): 0.0328 | p-value (gene TMCC1, Genbank AI934469, Nucleic Acid No. 2242): 0.0345 | p-value (gene TMEM16F, Genbank AL041280, Nucleic Acid No. 2243): 0.0268 | p-value (gene TMPRSS6, Genbank AL022314, Nucleic Acid No. 2323): 0.0304 | p-value (gene TNFSF10, Genbank NM_003810, Nucleic Acid No. 2244): 0.0148 | p-value (gene TNFSF10, Genbank U57059, Nucleic Acid No. 2245): 0.0367 | p-value (gene TNFSF13, TNFSF12-TNFSF13, Genbank AF114011, Nucleic Acid No. 2247): 0.0208 | p-value (gene TNFSF13, TNFSF12-TNFSF13, Genbank AF114013, Nucleic Acid No. 2246): 0.012 | p-value (gene TNFSF13B, Genbank AF134715, Nucleic Acid No. 2248): 0.0196 | p-value (gene TNRC5, Genbank AF161347, Nucleic Acid No. 2249): 0.00226 | p-value (gene TPARL, Genbank AW665624, Nucleic Acid No. 939): 0.0263 | p-value (gene TPP1, Genbank BG231932, Nucleic Acid No. 2250): 0.00621 | p-value (gene TPP1, Genbank NM_000391, Nucleic Acid No. 920): 0.000155 | p-value (gene TRIM8, Genbank NM_030912, Nucleic Acid No. 2252): 0.00322 | p-value (gene TRIM38, Genbank AI809831, Nucleic Acid No. 2251): 0.018 | p-value (gene UBE2D3, Genbank AI239832, Nucleic Acid No. 2253): 0.0322 | p-value (gene UBE2J1, Genbank N64079, Nucleic Acid No. 2254): 0.0247 | p-value (gene UBE3B, Genbank AK022019, Nucleic Acid No. 2255): 0.0134 | p-value (gene USP15, Genbank AU156202, Nucleic Acid No. 2256): 0.0357 | p-value (gene VCL, Genbank NM_014000, Nucleic Acid No. 2257): 0.000443 | p-value (gene VPS37C, Genbank BM452172, Nucleic Acid No. 2258): 0.00954 | p-value (gene VPS41, Genbank AF135593, Nucleic Acid No. 342): 0.0126 | p-value (gene WARS, Genbank NM_004184, Nucleic Acid No. 2259): 0.0139 | p-value (gene WASL, Genbank AK025323, Nucleic Acid No. 2260): 0.0268 | p-value (gene WDR40A, Genbank AL555107, Nucleic Acid No. 2324): 0.0469 | p-value (gene WIRE, Genbank AK026913, Nucleic Acid No. 2261): 0.00508 | p-value (gene WNK1, Genbank AL049278, Nucleic Acid No. 2262): 0.0169 | p-value (gene XPO1, Genbank BC041658, Nucleic Acid No. 2263): 0.0377 | p-value (gene YOD1, Genbank AF090896, Nucleic Acid No. 2325): 0.0189 | p-value (gene YWHAH, Genbank NM_003405, Nucleic Acid No. 1807): 0.018 | p-value (gene ZAK, Genbank AW069181, Nucleic Acid No. 2264): 0.00126 | p-value (gene ZCCHC2, Genbank AU147903, Nucleic Acid No. 2266): 0.0424 | p-value (gene ZCCHC2, Genbank BE676543, Nucleic Acid No. 2265): 0.0109 | p-value (gene ZCCHC2, Genbank NM_017742, Nucleic Acid No. 677): 0.022 | p-value (gene ZCCHC6, Genbank AA584428, Nucleic Acid No. 2267): 0.0477 | p-value (gene ZFHX1B, Genbank AF086037, Nucleic Acid No. 2268): 0.0124 | p-value (gene ZFHX1B, Genbank AI623184, Nucleic Acid No. 2269): 0.0233 | p-value (gene ZFP36L1, Genbank BE620915, Nucleic Acid No. 2270): 0.0409 | p-value (gene ZNF160, Genbank AA701249, Nucleic Acid No. 1369): 0.028 | p-value (gene ZNF264, Genbank NM_003417, Nucleic Acid No. 2271): 0.00262 | p-value (gene ZNF595, Genbank AI580142, Nucleic Acid No. 2326): 0.00776 | p-value (gene ZNF626, Genbank NM_145297, Nucleic Acid No. 2327): 0.0179 | p-value (gene ZNF652, Genbank NM_014897, Nucleic Acid No. 2272): 0.0417 | p-value (gene ZYG11B, Genbank AV701229, Nucleic Acid No. 2273): 0.00211 | p-value (gene ZYG11B, Genbank N21008, Nucleic Acid No. 2274): 0.0262 | p-value (gene ZYX, Genbank BC002323, Nucleic Acid No. 2275): 0.0212 | p-value (pp9099, NM_025201, nucleic acid 2169, vs. prednisone): 0.0311
